# The list shows a part of the results. Further columns of the screen follow, without active or inactive calls. Compounds called inactive in the main read-out are mostly missing here. Words in brackets tell the shape of the fitted curve; partial curves, single points and poor fits give uncertain potencies.
# Experiment: qHTS Assay for Lipid Storage Modulators in Drosophila S3 Cells;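 as to cell number change: cells counted by Cell Tracker Red CMTPX staining in the red channel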
# Details: BODIPY lipid droplet fluorescence, 18-24 h; for cell number change: measured here: cell count max response, cells fed with added oleic acid
# How it was run: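 Drosophila S3 cells loaded with oleic acid (400 uM, as added) and compounds at several concentrations; lipid droplets imaged by 488-nm laser-scanning cytometry, 500–530 nm intensity and object ratio to cell channel. Percent activity normalized to 20 uM Triacsin C.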
# [1] = measured here: cell number channel AC50, cells fed with added oleic acid
# [2] = measured here: lipid fluorescence (Fed channel) AC50, cells fed with added oleic acid
Compound,cell number change [%],AC50 [1],AC50 [2]
CCOC(=O)CN1C(=O)S/C(=C/C=C/c2ccc(N(C)C)cc2)C1=O,-85.9,"23.1 µM [falling, single point]","20.6 µM [falling, partial curve]"
CC1(NC(=O)COc2ccccc2-c2ccccc2)CCS(=O)(=O)C1 (configuration not stated),133,"29.1 µM [rising, single point]",
COc1cc(OC)cc(C(=O)N2CCC(C(=O)N3CCOCC3)CC2)c1,-1.32,,
CC1=C([N+](=O)[O-])C(c2ccccc2Cl)NC(=O)N1C (configuration not stated),-1.82,"0.164 µM [rising, partial curve, poor fit]","29.1 µM [rising, single point]"
CCCNC(=O)C(Cc1ccccc1)NC(=O)c1ccccc1 (configuration not stated),8.54,,
Cc1ccc(C(=O)OCC(=O)N(C)c2ccccc2)c(C)c1,-34.3,"3.66 µM [falling, partial curve, poor fit]",
O=C(CCOc1ccccc1)Nc1ccnn1C1CCN(Cc2ccccc2)CC1,-14.4,,"29.1 µM [falling, single point]"
Cc1nc2ccc(NC(=O)COc3ccccc3)cc2s1,-3.79,,
COC(=O)c1cn(NC(=O)c2ccc(OC)c(OC)c2)c(=O)c2ccccc12,,"0.58 µM [rising, single point]",
COc1ccccc1NC(=O)c1sc2ncn(Cc3ccccc3C)c(=O)c2c1C,14.1,,"25.9 µM [rising, single point]"
O=C(COc1ccc(S(=O)(=O)NC2CCCC2)cc1)N1CCCCCC1,113,"25.9 µM [rising, single point]","29.1 µM [rising, single point]"
CCCN1Cc2cccc(C(=O)N3CCN(c4ccccc4)CC3)c2C1=O,-20,"1.16 µM [falling, partial curve, poor fit]","1.46 µM [falling, partial curve]"
COc1ccc(N/C=C2/Sc3ccccc3NC2=O)cc1,,,"0.731 µM [rising, single point]"
O=S(=O)(c1ccc2c(c1)C(O)c1ccccc1CC2)C(F)(F)F (configuration not stated),-29.1,"3.26 µM [falling, full curve, poor fit]","18.4 µM [falling, partial curve]"
COc1cnc(-c2ccccn2)nc1Sc1ccc(C)cc1,-2.17,,
CCOC(=O)c1c(C)[nH]c(C(=O)COC(=O)CNC(=O)c2ccc(Cl)cc2Cl)c1C,-39,,"4.61 µM [falling, full curve, poor fit]"
CSc1nc2sc3c(c2c(=O)n1C1CCCCC1)CCN(C)C3,-87,"13 µM [falling, partial curve]","14.6 µM [falling, partial curve]"
Cc1cc(C)n(-c2nc3ccccc3nc2N2CCN(C(=O)c3ccccc3)CC2)n1,2.02,,"0.326 µM [rising, full curve, poor fit]"
O=C(Nc1cc(C(F)(F)F)ccc1N1CCOCC1)c1ccc2ccccc2n1,-5.92,,"0.184 µM [rising, full curve, poor fit]"
NC(=O)c1c(N)sc(=S)n1CC1CCCO1 (configuration not stated),5.64,,"0.146 µM [rising, full curve]"
Cc1cc(C(=O)N/N=C2/CC(C)CC(C)(C)C2)c(C)o1 (configuration not stated),-12.1,"0.731 µM [falling, full curve, poor fit]","0.731 µM [falling, full curve]"

Compound,cell number change [%],AC50 [1],AC50 [2]
NC(N)=N/N=C/c1ccc(Cl)c(Cl)c1,,,"0.146 µM [falling, full curve, poor fit]"
O=c1c2[nH]c3cccc(Cl)c3c2ncn1CC1CCCO1 (configuration not stated),6.51,,"2.91 µM [rising, partial curve]"
CCCN(CCC)CCNC(=O)c1cc2c(-c3ccccc3F)nn(C)c2s1,-2.01,,
CCC(C)NC(=O)CC(NS(=O)(=O)c1ccc(C)cc1)c1ccc(OC)cc1 (configuration not stated),-8.64,,"2.06 µM [rising, partial curve, poor fit]"
COc1cc(CNCCO)cc(Br)c1OCc1ccccc1Cl,-37.5,"3.66 µM [falling, single point]","25.9 µM [falling, single point]"
Cc1ccc(S(=O)(=O)C(CNC(=O)C(C)C)c2cccs2)cc1 (configuration not stated),14.1,,
CCOC(=O)C1CN(S(=O)(=O)c2ccccc2)c2cc(S(=O)(=O)CC)ccc2O1 (configuration not stated),0.377,,"7.31 µM [falling, partial curve]"
CSC1=NCCN1C(=O)c1ccc2ccccc2c1,,"0.116 µM [rising, partial curve]","0.092 µM [rising, single point]"
O=c1c2cc(N3CCOCC3)ccc2[nH]c(=S)n1CCCN1CCN(c2ccccc2F)CC1,9.53,,"2.31 µM [rising, partial curve]"
CC(=O)NCC(=O)NC(C(=O)Nc1ccc2c(c1)OCCO2)c1ccccc1 (configuration not stated),-12.3,,"1.16 µM [falling, full curve]"
CCOC(=O)N1CCc2c(sc(NC(=O)C3=COCCO3)c2C(N)=O)C1,-51.9,"1.64 µM [falling, partial curve]","1.84 µM [falling, full curve]"
CN(CC(=O)Nc1cccc(F)c1)C(=O)CCc1nc2sc3c(c2c(=O)[nH]1)CCCC3,-52.6,"29.1 µM [falling, partial curve]","0.00517 µM [falling, full curve, poor fit]"
CSc1cc(C)n(-c2ccccc2)c(=S)c1C(C)=O,-0.103,,
Cc1cc(/C=N/Nc2ccc([N+](=O)[O-])cn2)c(C)n1-c1ccccc1,19.8,"4.11 µM [rising, single point]",
CCC(=O)N=c1sc2cc([N+](=O)[O-])ccc2n1CCOC,117,"29.1 µM [rising, single point]",
O=C(O)CSC12CC3CC(C1)CC(C(=O)O)(C3)C2,48.4,"6.51 µM [rising, partial curve]","29.1 µM [rising, single point]"
CC(C)(C)n1nc(-c2ccc(F)cc2)c2c(N)ncnc21,,,"4.11 µM [rising, single point]"
O=C(Nc1ccccc1)c1ccc(-c2ccc(F)cc2)s1,1.65,,
Cc1ccccc1S(=O)Cc1ccc(C(=O)NCCCN2CCCCC2)o1 (configuration not stated),,,"4.61 µM [falling, full curve]"
CCC(C(=O)Nc1cccc(OC)c1)n1nc(C)c2c(C)n(-c3ccccc3)nc2c1=O (configuration not stated),0.59,,"6.51 µM [falling, single point]"
CCCCN(C(=O)CCCc1nc2ccccc2c(=O)[nH]1)c1c(N)n(CCCC)c(=O)[nH]c1=O,21.1,,

# Single records (already shown).
# NC(N)=N/N=C/c1ccc(Cl)c(Cl)c1 is entered as AC50 [2]: 0.146 µM [falling, full curve, poor fit]
# O=c1c2[nH]c3cccc(Cl)c3c2ncn1CC1CCCO1 (configuration not stated) is entered as cell number change [%]: 6.51; AC50 [2]: 2.91 µM [rising, partial curve]
# CCOC(=O)N1CCc2c(sc(NC(=O)C3=COCCO3)c2C(N)=O)C1 is entered as cell number change [%]: -51.9; AC50 [1]: 1.64 µM [falling, partial curve]; AC50 [2]: 1.84 µM [falling, full curve]

# Next part

Compound,cell number change [%],AC50 [1],AC50 [2]
COc1cccc(C2C(C(=O)c3ccc(C)o3)=C(O)C(=O)N2CCN2CCOCC2)c1 (configuration not stated),-9.19,,"29.1 µM [falling, single point]"
Cn1cc(SCC(=O)NCC2CCCO2)c2ccccc21 (configuration not stated),,"6.51 µM [rising, single point]",
CCOc1ccccc1NC(=O)CC1Nc2ccccc2NC1=O (configuration not stated),7.69,,
CCNC(=O)c1ccccc1-c1nc(-c2ccccc2OC)no1,19.3,,
CCCC(=O)NNC(=O)c1c(O)c2ccccc2[nH]c1=O,2.82,,"6.51 µM [rising, single point]"
Cc1cc(C)n(/N=C/c2c[nH]c3ccccc23)c(=O)c1,3.26,,"0.00461 µM [falling, full curve, poor fit]"
CCOC(=O)/C(=N\Nc1ccc(Br)cc1)N1CC(C)OC(C)C1 (configuration not stated),,,"2.59 µM [rising, partial curve]"
O=c1[nH]c(Nc2ccccc2)cc2ccccc12,0.0086,,"14.6 µM [falling, partial curve]"
O=C(COc1ccc(Cl)cc1)NCCNc1ccc([N+](=O)[O-])cc1,69.5,"18.4 µM [rising, partial curve]","6.51 µM [falling, single point]"
O=C(CSC1=NCCS1)Nc1ccccc1F,-14.8,,
Cc1ccc(NC(=O)C2CCCC2)cc1S(=O)(=O)N1CCOCC1,18.2,,"0.58 µM [rising, single point]"
Cc1cccc(N2C(S)=C(C#N)C(=O)NC2c2cccs2)c1 (configuration not stated),-16.2,,"20.6 µM [falling, partial curve]"
COc1ccc(S(=O)(=O)N2CCC(C(=O)Nc3ccccc3N3CCCCC3)CC2)cc1OC,9.9,,"29.1 µM [rising, single point]"
N/C(=N\OC(=O)CCC1CCCC1)c1ccccn1,84.1,,
CN(CC(=O)Nc1ccncc1)S(=O)(=O)c1ccc(Cl)cc1,-17.6,,"0.00461 µM [falling, full curve, poor fit]"
COC(=O)c1cn(-c2ccccc2)nc1-c1ccccc1,-3.09,,"3.66 µM [rising, partial curve]"
C=C(C)CN(CC)c1nc(N)c2c(N)nc3c(c2c1C#N)CC(=O)N3C12CC3CC(CC(C3)C1)C2,-62.1,"29.1 µM [falling, single point]","6.51 µM [falling, single point]"
Cc1ccc(NC(=O)COC(=O)c2ccc(-n3cccn3)cc2)cc1C,-9.52,,"3.66 µM [rising, partial curve]"
CCOC(=O)C1=C(C)NC(=S)NC1c1ccc(-c2ccc(Cl)cc2)o1 (configuration not stated),-0.4,,"3.66 µM [falling, full curve, poor fit]"
CC1=NN(c2cccc(C(=O)O)c2)C(=O)/C1=C\C=C\c1ccco1,-17.8,,"6.51 µM [falling, partial curve]"

# From PubChem BioAssay AID2685 (National Center for Advancing Translational Sciences (NCATS), 2010)
